# Test results: the supplement of paper PMC8728848
# The other results are listed elsewhere or left out.
# B1: Wzz (Escherichia coli) (protein)
# chain: MRTWKFPSVRVMMRVENNNVSGQNHDPEQIDLIDLLVQLWRGKMTIIISVIVAIVLAIGYLAVAKEKWTSTAIITQPDVGQIAGYNNAMNVIYGQAAPKVSDLQETLIGRFSSAFSALAETLDNQEEPEKLTIEPSVKNQQLPLTVSYVGQTAEGAQMKLAQYIQQVDDKVNQELEKDLKDNIALGRKNLQDSLRTQEVVAQEQKDLRIRQIQEALQYANQAQVTKPQIQQTGEDITQDTLFLLGSEALESMIKHEATRPLVFSSNYYQTRQNLLDIDNLDVDKLDIHAYLYVMKPTLPIRRDSPKKAITLILAVLLGGMVGAGIVLGRNALRNYNAK
# Columns and labels:
# Test in all cases: glycan array binding signal (z-score within array); higher = stronger binding
# Conditions in all cases: glycan notation: IUPAC condensed, linker removed
# [1] = molecular target: GlcNAc(b1-3)Man
# Procedure, shortened: (§1)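 Columns mapping to the same glycan were averaged after glycan names were converted to IUPAC-condensed notation. The data come from 3228 arrays in the Consortium for Functional Glycomics database, limited to those with an available protein sequence. Binding is reported as a within-array Z-score averaged across arrays of one protein sequence and across linkers.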
# [2] = molecular target: GlcNAc(b1-3)[GlcNAc(b1-4)][GlcNAc(b1-6)]GlcNAc
# Procedure, shortened: as §1
# [3] = molecular target: GlcNAc(b1-3)[GlcNAc(b1-6)]Gal(b1-4)GlcNAc
# Procedure, shortened: as §1
# [4] = molecular target: GlcNAc(b1-3)[GlcNAc(b1-6)]GalNAc
# Procedure, shortened: as §1
# [5] = molecular target: GlcNAc(b1-4)Gal(b1-4)GlcNAc
# Procedure, shortened: as §1
# [6] = molecular target: GlcNAc(b1-4)GlcNAc
# Procedure, shortened: as §1
# [7] = molecular target: GlcNAc(b1-4)GlcNAc(b1-4)GlcNAc
# Procedure, shortened: as §1
# [8] = molecular target: GlcNAc(b1-4)GlcNAc(b1-4)GlcNAc(b1-4)GlcNAc(b1-4)GlcNAc
# Procedure, shortened: as §1
# [9] = molecular target: GlcNAc(b1-4)GlcNAc(b1-4)GlcNAc(b1-4)GlcNAc(b1-4)GlcNAc(b1-4)GlcNAc
# Procedure, shortened: as §1
# [10] = molecular target: GlcNAc(b1-4)[GlcNAc(b1-6)]GalNAc
# Procedure, shortened: as §1
# [11] = molecular target: GlcNAc(b1-6)Gal(b1-4)GlcNAc
# Procedure, shortened: as §1
# [12] = molecular target: GlcNAc(b1-6)GalNAc
# Procedure, shortened: as §1
# [13] = molecular target: GlcNAc6S(b1-3)Gal(b1-4)GlcNAc
# Procedure, shortened: as §1
# [14] = molecular target: Kdn(a2-3)Gal(b1-3)GalNAc
# Procedure, shortened: as §1
# [15] = molecular target: Kdn(a2-3)Gal(b1-3)GlcNAc
# Procedure, shortened: as §1
# [16] = molecular target: Kdn(a2-3)Gal(b1-4)Glc
# Procedure, shortened: as §1
# [17] = molecular target: Kdn(a2-3)Gal(b1-4)GlcNAc
# Procedure, shortened: as §1
# [18] = molecular target: Kdn(a2-3)Gal(b1-4)[Fuc(a1-3)]GlcNAc
# Procedure, shortened: as §1
# [19] = molecular target: Kdn(a2-6)Gal(b1-4)GlcNAc
# Procedure, shortened: as §1
# [20] = molecular target: Man(a1-2)Man(a1-2)Man(a1-3)Man
# Procedure, shortened: as §1
# [21] = molecular target: Man(a1-2)Man(a1-2)Man(a1-6)[Man(a1-3)]Man
# Procedure, shortened: as §1
# [22] = molecular target: Man(a1-2)Man(a1-3)Man
# Procedure, shortened: as §1
# [23] = molecular target: Man(a1-2)Man(a1-3)[Man(a1-2)Man(a1-6)]Man
# Procedure, shortened: as §1
# [24] = molecular target: Man(a1-2)Man(a1-3)[Man(a1-2)Man(a1-6)]Man(a1-6)[Man(a1-2)Man(a1-2)Man(a1-3)]Man
# Procedure, shortened: as §1
# [25] = molecular target: Man(a1-2)Man(a1-3)[Man(a1-2)Man(a1-6)]Man(a1-6)[Man(a1-2)Man(a1-2)Man(a1-3)]Man(b1-4)GlcNAc(b1-4)GlcNAc
# Procedure, shortened: as §1
# [26] = molecular target: Man(a1-2)Man(a1-3)[Man(a1-6)]Man(a1-6)[Man(a1-2)Man(a1-3)]Man(b1-4)GlcNAc(b1-4)GlcNAc
# Procedure, shortened: as §1
# [27] = molecular target: Man(a1-2)Man(a1-6)[Man(a1-3)]Man(a1-6)[Man(a1-2)Man(a1-2)Man(a1-3)]Man
# Procedure, shortened: as §1
# [28] = molecular target: Man(a1-2)Man(a1-6)[Man(a1-3)]Man(a1-6)[Man(a1-2)Man(a1-2)Man(a1-3)]Man(b1-4)GlcNAc(b1-4)GlcNAc
# Procedure, shortened: as §1
# [29] = molecular target: Man(a1-3)[Man(a1-6)]Man
# Procedure, shortened: as §1
# [30] = molecular target: Man(a1-3)[Man(a1-6)]Man(a1-6)[Man(a1-2)Man(a1-3)]Man(b1-4)GlcNAc(b1-4)GlcNAc
# Procedure, shortened: as §1
# [31] = molecular target: Man(a1-3)[Man(a1-6)]Man(a1-6)[Man(a1-3)]Man
# Procedure, shortened: as §1
# [32] = molecular target: Man(a1-3)[Man(a1-6)]Man(a1-6)[Man(a1-3)]Man(b1-4)GlcNAc(b1-4)GlcNAc
# Procedure, shortened: as §1
# [33] = molecular target: Man(a1-3)[Man(a1-6)]Man(b1-4)GlcNAc(b1-4)GlcNAc
# Procedure, shortened: as §1
# [34] = molecular target: Man(a1-3)[Man(a1-6)]Man(b1-4)GlcNAc(b1-4)[Fuc(a1-6)]GlcNAc
# Procedure, shortened: as §1
# [35] = molecular target: Man(a1-6)Man
# Procedure, shortened: as §1
# [36] = molecular target: Man(b1-4)GlcNAc
# Procedure, shortened: as §1
# [37] = molecular target: MurNAc(b1-4)GlcNAc
# Procedure, shortened: as §1
# [38] = molecular target: Neu5Ac(a2-3)Gal
# Procedure, shortened: as §1
binder,measurement,setting,value
B1,glycan array binding signal (z-score),[1],0.005
same,glycan array binding signal (z-score),[2],-0.524
same,glycan array binding signal (z-score),[3],0.869
same,glycan array binding signal (z-score),[4],-0.384
same,glycan array binding signal (z-score),[5],-0.166
same,glycan array binding signal (z-score),[6],0.05
same,glycan array binding signal (z-score),[7],-0.438
same,glycan array binding signal (z-score),[8],0.458
same,glycan array binding signal (z-score),[9],0.704
same,glycan array binding signal (z-score),[10],-0.637
same,glycan array binding signal (z-score),[11],-0.244
same,glycan array binding signal (z-score),[12],-0.259
same,glycan array binding signal (z-score),[13],0.081
same,glycan array binding signal (z-score),[14],0.679
same,glycan array binding signal (z-score),[15],1.36
same,glycan array binding signal (z-score),[16],0.436
same,glycan array binding signal (z-score),[17],0.077
same,glycan array binding signal (z-score),[18],0.454
same,glycan array binding signal (z-score),[19],-0.175
same,glycan array binding signal (z-score),[20],-0.639
same,glycan array binding signal (z-score),[21],-0.326
same,glycan array binding signal (z-score),[22],-0.72
same,glycan array binding signal (z-score),[23],-1.03
same,glycan array binding signal (z-score),[24],0.17
same,glycan array binding signal (z-score),[25],0.545
same,glycan array binding signal (z-score),[26],-0.091
same,glycan array binding signal (z-score),[27],-0.448
same,glycan array binding signal (z-score),[28],0.013
same,glycan array binding signal (z-score),[29],-0.121
same,glycan array binding signal (z-score),[30],-0.195
same,glycan array binding signal (z-score),[31],-0.03
same,glycan array binding signal (z-score),[32],-0.522
same,glycan array binding signal (z-score),[33],-0.709
same,glycan array binding signal (z-score),[34],-0.523
same,glycan array binding signal (z-score),[35],0.131
same,glycan array binding signal (z-score),[36],-0.298
same,glycan array binding signal (z-score),[37],0.063
same,glycan array binding signal (z-score),[38],-0.898

# An excerpt of these results, bar-delimited:
binder | measurement | setting | value
B1 | glycan array binding signal (z-score) | [4] | -0.384
same | glycan array binding signal (z-score) | [28] | 0.013
